US10563263B2, “Genetic polymorphisms associated with statin response and cardiovascular diseases, methods of detection and uses thereof” (CELERA CORPORATION, priority 2010, dated 2020)
The source gives many values for each of these; only a part stands here.

Tested on: revascularization, unstable angina requiring hospitalization, MI, all causes of death, or stroke
Test: PROVE IT-TIMI 22: SNP by treatment interaction (high-dose atorvastatin vs standard-dose pravastatin), logistic regression (synergy index), primary composite endpoint
Type: in vivo, human

CC(C)c1c(C(=O)Nc2ccccc2)c(-c2ccccc2)c(-c2ccc(F)cc2)n1CC[C@@H](O)C[C@@H](O)CC(=O)O [Atorvastatin, atorvastatin]
OR (PROVEIT, rs9857, caseonly, add, CVD): 0.78
OR (PROVEIT, rs133871, caseonly, dom, CHD): 0.59
OR (PROVEIT, rs581401, cohort, rec, CHD): 0.54
OR (PROVEIT, rs603940, cohort, rec, CHD): 0.55
OR (PROVEIT, rs623400, caseonly, dom, CVD): 0.65
OR (PROVEIT, rs623584, cohort, rec, CHD): 0.56
OR (PROVEIT, rs675163, caseonly, add, CVD): 0.58
OR (PROVEIT, rs936671, caseonly, dom, CHD): 0.64
OR (PROVEIT, rs1068705, caseonly, dom, CHD): 0.58
OR (PROVEIT, rs1129570, caseonly, add, CHD): 1.41
OR (PROVEIT, rs1155875, caseonly, add, CHD): 0.79
OR (PROVEIT, rs1352236, caseonly, rec, CHD): 0.39
OR (PROVEIT, rs1505469, caseonly, add, CHD): 1.85
OR (PROVEIT, rs1531842, caseonly, dom, CHD): 0.67
OR (PROVEIT, rs1536506, caseonly, rec, CVD): 1.44
OR (PROVEIT, rs1564078, caseonly, add, CHD): 0.86
OR (PROVEIT, rs1866386, caseonly, add, CVD): 0.77
OR (PROVEIT, rs2184393, caseonly, dom, CHD): 0.75
OR (PROVEIT, rs2748901, cohort, rec, CHD): 1.43
OR (PROVEIT, rs2869680, caseonly, add, CVD): 0.72
OR (PROVEIT, rs2880563, caseonly, dom, CVD): 1.51
OR (PROVEIT, rs3800202, cohort, add, CHD): 0.59
OR (PROVEIT, rs4251580, caseonly, add, CVD): 0.64
OR (PROVEIT, rs4689078, caseonly, add, CVD): 1.20
OR (PROVEIT, rs5764592, caseonly, dom, CVD): 1.48
OR (PROVEIT, rs6435378, caseonly, dom, CHD): 0.74
OR (PROVEIT, rs6848512, caseonly, dom, CVD): 0.64
OR (PROVEIT, rs7623808, caseonly, rec, CVD): 4.79
OR (PROVEIT, rs7770578, caseonly, add, CHD): 0.65
OR (PROVEIT, rs7915250, caseonly, dom, CVD): 0.66
OR (PROVEIT, rs9986576, caseonly, rec, CVD): 2.00
OR (PROVEIT, rs10106852, caseonly, rec, CVD): 2.19
OR (PROVEIT, rs10181805, caseonly, add, CVD): 1.28
OR (PROVEIT, rs10460737, caseonly, add, CVD): 0.10
OR (PROVEIT, rs10738948, caseonly, add, CHD): 0.68
OR (PROVEIT, rs11668038, caseonly, add, CHD): 1.54
OR (PROVEIT, rs12608167, cohort, dom, CVD): 0.63
OR (PROVEIT, rs13103899, caseonly, dom, CVD): 0.53
OR (PROVEIT, rs13117043, caseonly, dom, CHD): 1.74
OR (PROVEIT, rs17035071, caseonly, dom, CHD): 1.60
OR (PROVEIT, rs17310169, caseonly, dom, CVD): 0.61
OR (PROVEIT, rs17718867, caseonly, add, CHD): 0.77
OR (PROVEIT, rs77638540, cohort, dom, CVD): 0.49
OR (SNP rs250162 allele C, model ADD, Imputed, ATORVA vs PRAVA): 0.6714
OR (SNP rs250162 allele C, model DOM, Imputed, ATORVA vs PRAVA): 0.6417
OR (SNP rs264129 allele T, model DOM, Imputed, ATORVA vs PRAVA): 0.6399
OR (SNP rs277411 allele G, model DOM, Imputed, ATORVA vs PRAVA): 1.109
OR (SNP rs373983 allele G, model DOM, Imputed, ATORVA vs PRAVA): 1.954
OR (SNP rs399485 allele A, model DOM, Imputed, ATORVA vs PRAVA): 1.648
OR (SNP rs483159 allele T, model DOM, Imputed, ATORVA vs PRAVA): 1.953
OR (SNP rs2389866 allele C, model DOM, Imputed, ATORVA vs PRAVA): 0.5404
OR (SNP rs2389869 allele C, model DOM, Imputed, ATORVA vs PRAVA): 0.5404
OR (SNP rs2389870 allele C, model DOM, Genotyped, ATORVA vs PRAVA): 0.5285
OR (SNP rs2418494 allele G, model ADD, Imputed, ATORVA vs PRAVA): 0.6959
OR (SNP rs2418541 allele A, model DOM, Imputed, ATORVA vs PRAVA): 0.593
OR (SNP rs2418542 allele A, model DOM, Imputed, ATORVA vs PRAVA): 0.593
OR (SNP rs2423556 allele C, model DOM, Imputed, ATORVA vs PRAVA): 0.5931
OR (SNP rs2437688 allele C, model ADD, Imputed, ATORVA vs PRAVA): 2.041
OR (SNP rs2456809 allele G, model DOM, Imputed, ATORVA vs PRAVA): 1.173
OR (SNP rs2456811 allele T, model ADD, Imputed, ATORVA vs PRAVA): 1.146
OR (SNP rs2456811 allele T, model DOM, Imputed, ATORVA vs PRAVA): 1.202
OR (SNP rs2476976 allele C, model DOM, Imputed, ATORVA vs PRAVA): 1.391
OR (SNP rs2484911 allele A, model DOM, Imputed, ATORVA vs PRAVA): 1.347
OR (SNP rs2488557 allele C, model DOM, Imputed, ATORVA vs PRAVA): 0.924
OR (SNP rs2560708 allele T, model ADD, Imputed, ATORVA vs PRAVA): 0.7416
OR (SNP rs2617841 allele G, model DOM, Imputed, ATORVA vs PRAVA): 0.7326
OR (SNP rs2622499 allele G, model DOM, Imputed, ATORVA vs PRAVA): 0.5404
OR (SNP rs2642936 allele T, model ADD, Imputed, ATORVA vs PRAVA): 0.9768
OR (SNP rs2660633 allele A, model DOM, Imputed, ATORVA vs PRAVA): 1.204
OR (SNP rs2660634 allele C, model DOM, Imputed, ATORVA vs PRAVA): 1.204
OR (SNP rs2660648 allele A, model ADD, Imputed, ATORVA vs PRAVA): 1.135
OR (SNP rs2660648 allele A, model DOM, Imputed, ATORVA vs PRAVA): 1.187
OR (SNP rs2681505 allele T, model ADD, Imputed, ATORVA vs PRAVA): 0.8499
OR (SNP rs2832634 allele G, model ADD, Imputed, ATORVA vs PRAVA): 1.764
OR (SNP rs2832637 allele T, model ADD, Imputed, ATORVA vs PRAVA): 1.764
OR (SNP rs2843167 allele A, model DOM, Imputed, ATORVA vs PRAVA): 1.111
OR (SNP rs2876227 allele C, model ADD, Imputed, ATORVA vs PRAVA): 1.389
OR (SNP rs2909862 allele G, model DOM, Imputed, ATORVA vs PRAVA): 1.083
OR (SNP rs3001945 allele T, model DOM, Imputed, ATORVA vs PRAVA): 1.72
OR (SNP rs3011020 allele C, model DOM, Imputed, ATORVA vs PRAVA): 1.747
OR (SNP rs3743794 allele G, model DOM, Imputed, ATORVA vs PRAVA): 0.8871
OR (SNP rs3756154 allele C, model ADD, Imputed, ATORVA vs PRAVA): 0.6137
OR (SNP rs3756154 allele C, model DOM, Imputed, ATORVA vs PRAVA): 0.5162
OR (SNP rs3775850 allele A, model DOM, Imputed, ATORVA vs PRAVA): 0.5373
OR (SNP rs3775851 allele C, model DOM, Imputed, ATORVA vs PRAVA): 0.5373
OR (SNP rs3793044 allele C, model ADD, Imputed, ATORVA vs PRAVA): 1.091
OR (SNP rs3793053 allele C, model DOM, Imputed, ATORVA vs PRAVA): 0.9919
OR (SNP rs3796246 allele G, model DOM, Imputed, ATORVA vs PRAVA): 0.9829
OR (SNP rs3806003 allele A, model ADD, Imputed, ATORVA vs PRAVA): 1.091
OR (SNP rs3806004 allele T, model DOM, Imputed, ATORVA vs PRAVA): 0.982
OR (SNP rs3806010 allele T, model DOM, Imputed, ATORVA vs PRAVA): 0.982
OR (SNP rs3806014 allele T, model DOM, Imputed, ATORVA vs PRAVA): 1.002
OR (SNP rs3806015 allele A, model DOM, Imputed, ATORVA vs PRAVA): 0.9945
OR (SNP rs3806018 allele A, model DOM, Imputed, ATORVA vs PRAVA): 0.982
OR (SNP rs3806019 allele A, model DOM, Imputed, ATORVA vs PRAVA): 0.9676
OR (SNP rs3806024 allele T, model DOM, Imputed, ATORVA vs PRAVA): 1.001
OR (SNP rs3942254 allele T, model ADD, Imputed, ATORVA vs PRAVA): 0.7577
OR (SNP rs3942254 allele T, model DOM, Imputed, ATORVA vs PRAVA): 0.6591
OR (SNP rs3945085 allele A, model DOM, Imputed, ATORVA vs PRAVA): 1.324
OR (SNP rs3976737 allele G, model ADD, Imputed, ATORVA vs PRAVA): 1.239
OR (SNP rs4029119 allele G, model ADD, Imputed, ATORVA vs PRAVA): 0.9741
OR (SNP rs4029119 allele G, model DOM, Imputed, ATORVA vs PRAVA): 1.136
OR (SNP rs4076201 allele G, model REC, Imputed, ATORVA vs PRAVA): 1.982
OR (SNP rs4146972 allele T, model DOM, Genotyped, ATORVA vs PRAVA): 1.832
OR (SNP rs4238087 allele G, model DOM, Imputed, ATORVA vs PRAVA): 0.5579
OR (SNP rs4251569 allele T, model ADD, Imputed, ATORVA vs PRAVA): 0.645
OR (SNP rs4251569 allele T, model DOM, Imputed, ATORVA vs PRAVA): 0.5571
OR (SNP rs4273613 allele T, model ADD, Imputed, ATORVA vs PRAVA): 0.9741
OR (SNP rs4273613 allele T, model DOM, Imputed, ATORVA vs PRAVA): 1.136
OR (SNP rs4315598 allele T, model ADD, Imputed, ATORVA vs PRAVA): 1.389
OR (SNP rs4315598 allele T, model REC, Imputed, ATORVA vs PRAVA): 2.069
OR (SNP rs4321395 allele A, model DOM, Imputed, ATORVA vs PRAVA): 1.094
OR (SNP rs4321596 allele T, model REC, Genotyped, ATORVA vs PRAVA): 2.583
OR (SNP rs4324417 allele T, model DOM, Imputed, ATORVA vs PRAVA): 1.061
OR (SNP rs4328619 allele G, model DOM, Genotyped, ATORVA vs PRAVA): 0.5613
OR (SNP rs4338909 allele T, model ADD, Imputed, ATORVA vs PRAVA): 0.998
OR (SNP rs4370878 allele G, model DOM, Imputed, ATORVA vs PRAVA): 1.312
OR (SNP rs4379434 allele T, model DOM, Genotyped, ATORVA vs PRAVA): 0.9929
OR (SNP rs4416407 allele T, model DOM, Imputed, ATORVA vs PRAVA): 1.387
OR (SNP rs4417899 allele C, model REC, Imputed, ATORVA vs PRAVA): 0.7208
OR (SNP rs4442732 allele A, model ADD, Imputed, ATORVA vs PRAVA): 0.9155
OR (SNP rs4444612 allele G, model ADD, Imputed, ATORVA vs PRAVA): 1.389
OR (SNP rs4444612 allele G, model REC, Imputed, ATORVA vs PRAVA): 2.069
OR (SNP rs4509702 allele C, model DOM, Imputed, ATORVA vs PRAVA): 1.312
OR (SNP rs4533145 allele T, model DOM, Imputed, ATORVA vs PRAVA): 1.764
OR (SNP rs4557006 allele A, model DOM, Imputed, ATORVA vs PRAVA): 1.096
OR (SNP rs4570530 allele C, model DOM, Imputed, ATORVA vs PRAVA): 1.312
